Test results published in the M2OR odorant receptor database.
Only a part is listed here, and it is no random draw. Calls are pooled over several reports, among them a noisy single-well screen. The list shows a part of the results.

Experiments:
Conditions in all cases: stereoisomer not certain
UniProt Q8VGT4 = target: T1, UniProt Q8VGT4
T1 sequence (whole entry): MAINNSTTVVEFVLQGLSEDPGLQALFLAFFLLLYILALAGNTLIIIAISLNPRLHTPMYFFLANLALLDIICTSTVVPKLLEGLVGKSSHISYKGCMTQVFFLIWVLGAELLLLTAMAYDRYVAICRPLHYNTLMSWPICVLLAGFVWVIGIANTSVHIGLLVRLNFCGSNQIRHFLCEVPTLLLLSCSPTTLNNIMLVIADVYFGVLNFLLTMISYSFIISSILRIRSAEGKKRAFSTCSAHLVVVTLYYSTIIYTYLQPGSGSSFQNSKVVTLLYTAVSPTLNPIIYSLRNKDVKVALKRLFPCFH
In short: (§1)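 Each receptor–molecule pair is labelled responsive or non-responsive (inactive) according to whether the original authors judged the measured signal statistically different from baseline. The data were taken from the main text and supplementary material of published papers and checked for typos and inconsistencies. Assay methods differed by source, with transient luciferase assays in mammalian cell lines being common.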

UniProt Q8VGU3 = target: T2, UniProt Q8VGU3
T2 sequence (whole entry): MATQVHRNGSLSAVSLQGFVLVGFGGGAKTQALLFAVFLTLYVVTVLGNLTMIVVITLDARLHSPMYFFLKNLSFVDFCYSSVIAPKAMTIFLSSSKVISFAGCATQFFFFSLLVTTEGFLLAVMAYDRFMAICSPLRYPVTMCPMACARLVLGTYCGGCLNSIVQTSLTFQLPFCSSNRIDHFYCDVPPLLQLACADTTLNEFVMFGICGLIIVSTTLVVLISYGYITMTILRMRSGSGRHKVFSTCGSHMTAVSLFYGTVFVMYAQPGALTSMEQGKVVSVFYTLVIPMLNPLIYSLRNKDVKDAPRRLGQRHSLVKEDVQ
In short: as §1

UniProt Q8VGV1 = target: T3, UniProt Q8VGV1
T3 sequence (whole entry): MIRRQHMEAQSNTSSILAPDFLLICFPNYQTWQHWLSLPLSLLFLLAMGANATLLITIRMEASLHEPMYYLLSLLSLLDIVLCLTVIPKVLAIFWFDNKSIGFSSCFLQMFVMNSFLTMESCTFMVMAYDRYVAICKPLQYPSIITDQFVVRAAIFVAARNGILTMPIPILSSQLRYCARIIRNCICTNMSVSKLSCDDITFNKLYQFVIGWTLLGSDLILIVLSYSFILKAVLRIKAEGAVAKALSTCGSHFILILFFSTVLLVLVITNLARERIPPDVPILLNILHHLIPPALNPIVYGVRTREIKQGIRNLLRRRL
In short: as §1

UniProt Q8VGV7 = target: T4, UniProt Q8VGV7
T4 sequence (whole entry): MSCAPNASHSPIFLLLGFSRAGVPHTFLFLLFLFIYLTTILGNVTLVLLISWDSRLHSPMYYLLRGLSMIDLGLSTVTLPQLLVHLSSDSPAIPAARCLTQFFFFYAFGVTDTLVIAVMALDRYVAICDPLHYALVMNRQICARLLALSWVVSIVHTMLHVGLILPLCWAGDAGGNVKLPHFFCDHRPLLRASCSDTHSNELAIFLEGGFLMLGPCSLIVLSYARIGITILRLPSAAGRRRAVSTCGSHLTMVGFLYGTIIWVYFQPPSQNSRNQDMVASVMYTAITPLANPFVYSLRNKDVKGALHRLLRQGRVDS
In short: as §1

UniProt Q8VGX3 = target: T5, UniProt Q8VGX3
T5 sequence (whole entry): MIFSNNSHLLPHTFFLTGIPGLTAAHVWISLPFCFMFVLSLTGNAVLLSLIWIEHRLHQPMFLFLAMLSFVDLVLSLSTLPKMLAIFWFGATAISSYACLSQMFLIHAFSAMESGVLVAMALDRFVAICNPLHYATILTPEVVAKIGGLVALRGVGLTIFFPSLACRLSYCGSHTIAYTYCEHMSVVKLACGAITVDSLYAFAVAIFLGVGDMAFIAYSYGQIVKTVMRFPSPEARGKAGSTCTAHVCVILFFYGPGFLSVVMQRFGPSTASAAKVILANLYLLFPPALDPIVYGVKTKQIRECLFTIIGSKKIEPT
In short: as §1

UniProt Q8VGX5 = target: T6, UniProt Q8VGX5
T6 sequence (whole entry): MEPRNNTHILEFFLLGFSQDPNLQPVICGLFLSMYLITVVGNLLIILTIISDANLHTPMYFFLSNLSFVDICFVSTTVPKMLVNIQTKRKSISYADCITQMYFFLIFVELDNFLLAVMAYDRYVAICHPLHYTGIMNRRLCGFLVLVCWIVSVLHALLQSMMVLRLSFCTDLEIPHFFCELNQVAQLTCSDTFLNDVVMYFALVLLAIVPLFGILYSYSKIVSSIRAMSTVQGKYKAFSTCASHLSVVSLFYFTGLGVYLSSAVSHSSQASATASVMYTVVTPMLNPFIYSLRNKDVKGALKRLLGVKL
In short: as §1

UniProt Q8VGX8 = target: T7, UniProt Q8VGX8
T7 sequence (whole entry): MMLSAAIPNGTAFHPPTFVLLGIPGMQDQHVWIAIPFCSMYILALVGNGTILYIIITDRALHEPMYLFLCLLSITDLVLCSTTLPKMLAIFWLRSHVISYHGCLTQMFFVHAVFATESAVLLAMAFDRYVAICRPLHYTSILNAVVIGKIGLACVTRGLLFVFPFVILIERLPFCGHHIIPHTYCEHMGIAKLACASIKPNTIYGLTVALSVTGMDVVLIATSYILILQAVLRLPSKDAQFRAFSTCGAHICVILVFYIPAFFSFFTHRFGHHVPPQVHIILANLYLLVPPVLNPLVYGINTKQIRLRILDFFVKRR
In short: as §1

UniProt Q8VGY6 = target: T8, UniProt Q8VGY6
T8 sequence (whole entry): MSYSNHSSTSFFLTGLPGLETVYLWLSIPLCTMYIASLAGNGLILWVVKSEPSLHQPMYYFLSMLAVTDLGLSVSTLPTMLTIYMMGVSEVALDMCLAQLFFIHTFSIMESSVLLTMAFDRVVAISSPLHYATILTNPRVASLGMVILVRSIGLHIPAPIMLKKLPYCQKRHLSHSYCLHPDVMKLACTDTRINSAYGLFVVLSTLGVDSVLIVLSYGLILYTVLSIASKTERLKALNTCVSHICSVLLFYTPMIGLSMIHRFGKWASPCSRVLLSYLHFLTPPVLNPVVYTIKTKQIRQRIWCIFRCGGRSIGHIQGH
In short: as §1

UniProt Q8VGZ2 = target: T9, UniProt Q8VGZ2
T9 sequence (whole entry): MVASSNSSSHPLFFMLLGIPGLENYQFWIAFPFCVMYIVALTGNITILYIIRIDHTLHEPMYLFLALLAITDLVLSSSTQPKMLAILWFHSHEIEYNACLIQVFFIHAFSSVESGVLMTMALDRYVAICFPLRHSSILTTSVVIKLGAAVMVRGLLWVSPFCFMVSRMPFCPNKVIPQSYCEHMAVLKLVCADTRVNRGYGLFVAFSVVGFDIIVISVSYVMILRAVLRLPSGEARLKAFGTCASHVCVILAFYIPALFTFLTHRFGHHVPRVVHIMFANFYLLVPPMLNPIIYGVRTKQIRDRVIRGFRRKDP
In short: as §1

UniProt Q8VGZ7 = target: T10, UniProt Q8VGZ7
T10 sequence (whole entry): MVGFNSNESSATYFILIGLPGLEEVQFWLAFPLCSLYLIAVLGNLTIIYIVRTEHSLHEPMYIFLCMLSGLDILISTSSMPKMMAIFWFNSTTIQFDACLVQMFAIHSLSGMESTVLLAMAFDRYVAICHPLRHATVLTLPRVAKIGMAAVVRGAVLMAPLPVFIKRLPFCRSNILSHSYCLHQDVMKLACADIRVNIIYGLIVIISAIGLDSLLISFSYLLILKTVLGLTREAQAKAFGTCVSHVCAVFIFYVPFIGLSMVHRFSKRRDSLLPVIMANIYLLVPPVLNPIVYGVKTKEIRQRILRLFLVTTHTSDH
In short: as §1

UniProt Q8VH10 = target: T11, UniProt Q8VH10
T11 sequence (whole entry): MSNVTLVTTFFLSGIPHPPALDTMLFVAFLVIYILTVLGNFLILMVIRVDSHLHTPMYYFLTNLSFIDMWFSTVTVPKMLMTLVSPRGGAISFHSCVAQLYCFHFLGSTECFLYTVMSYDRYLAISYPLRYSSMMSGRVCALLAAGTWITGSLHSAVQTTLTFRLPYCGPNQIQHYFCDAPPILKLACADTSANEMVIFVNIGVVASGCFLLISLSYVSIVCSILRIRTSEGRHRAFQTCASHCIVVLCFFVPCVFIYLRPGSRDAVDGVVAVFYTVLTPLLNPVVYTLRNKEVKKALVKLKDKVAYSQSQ
In short: as §1

UniProt Q8VH16 = target: T12, UniProt Q8VH16
T12 sequence (whole entry): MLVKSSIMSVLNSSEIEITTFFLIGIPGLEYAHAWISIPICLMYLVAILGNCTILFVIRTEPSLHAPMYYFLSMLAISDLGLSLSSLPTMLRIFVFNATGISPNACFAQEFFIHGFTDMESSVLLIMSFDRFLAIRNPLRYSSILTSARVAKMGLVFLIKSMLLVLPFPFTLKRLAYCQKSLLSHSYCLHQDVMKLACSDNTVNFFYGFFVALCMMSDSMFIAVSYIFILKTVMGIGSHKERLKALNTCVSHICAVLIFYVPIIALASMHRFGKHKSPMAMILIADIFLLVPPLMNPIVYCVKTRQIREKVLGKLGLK
In short: as §1

UniProt Q8VH20 = target: T13, UniProt Q8VH20
T13 sequence (whole entry): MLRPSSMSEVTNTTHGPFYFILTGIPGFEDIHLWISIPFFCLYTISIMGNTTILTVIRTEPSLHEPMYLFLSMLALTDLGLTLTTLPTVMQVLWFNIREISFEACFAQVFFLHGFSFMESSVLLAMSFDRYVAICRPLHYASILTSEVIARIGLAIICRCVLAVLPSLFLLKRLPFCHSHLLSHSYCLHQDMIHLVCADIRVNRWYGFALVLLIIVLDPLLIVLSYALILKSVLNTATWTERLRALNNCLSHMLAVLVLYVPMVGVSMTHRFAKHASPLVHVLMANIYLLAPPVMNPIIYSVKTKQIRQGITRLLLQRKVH
In short: as §1

UniProt Q8VH21 = target: T14, UniProt Q8VH21
T14 sequence (whole entry): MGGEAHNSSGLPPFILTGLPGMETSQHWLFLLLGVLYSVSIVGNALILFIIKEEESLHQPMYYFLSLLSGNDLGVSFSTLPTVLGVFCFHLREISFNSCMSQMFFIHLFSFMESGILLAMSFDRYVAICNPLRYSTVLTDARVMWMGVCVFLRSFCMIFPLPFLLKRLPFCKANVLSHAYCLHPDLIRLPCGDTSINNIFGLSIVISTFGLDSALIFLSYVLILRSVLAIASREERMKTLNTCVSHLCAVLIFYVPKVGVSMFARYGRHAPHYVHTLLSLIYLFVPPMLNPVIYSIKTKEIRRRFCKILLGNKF
In short: as §1

UniProt Q924H8 = target: T15, UniProt Q924H8
T15 sequence (whole entry): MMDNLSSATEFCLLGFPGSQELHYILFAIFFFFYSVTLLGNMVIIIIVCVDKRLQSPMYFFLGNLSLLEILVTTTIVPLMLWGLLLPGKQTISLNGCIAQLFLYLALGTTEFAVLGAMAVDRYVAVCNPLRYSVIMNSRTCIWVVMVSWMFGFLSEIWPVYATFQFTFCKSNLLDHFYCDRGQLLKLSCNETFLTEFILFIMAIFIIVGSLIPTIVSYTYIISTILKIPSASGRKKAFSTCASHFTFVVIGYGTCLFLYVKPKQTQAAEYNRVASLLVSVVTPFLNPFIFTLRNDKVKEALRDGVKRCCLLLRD
In short: as §1

Measured: odorant receptor agonist call

CCCCCCCCCC=O
active: UniProt Q8VGZ2
inactive: all other assays above
